PubChem BioAssay AID1671195, Yale University | 2021
Screen: 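Knockdowns that increase or decrease uptake of fluorescent LDL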 (primary screen). Cells: human Huh7 hepatoma cells. Reagent: siRNA pool against human genes, 18 nM. Timing: about 2 to 2.5 days of knockdown, then 8 h LDL uptake. Treatment: DiI-labelled LDL at 30 µg/ml for 8 h, in lipoprotein-deficient serum medium. Read-out: 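Fluorescent LDL signal imaged in cells, scaled to the plate median, robust z-score for each replicate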. Scale: robust z-score: higher = more LDL uptake after knockdown. Hit rule: 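Active when two or more replicates show a robust z-score above 2 or below -2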.
In all, the deposit lists about 22,000 reagents; below is an unselected part. About 1,510 of all reagents (6.9%) count as active. 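Active includes knockdowns raising or lowering LDL uptake; positive z-scores mean more uptake, negative mean less.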 Reagent sequences are not shown.

Which result is listed for ANKRD6 (ankyrin repeat domain 6)?
robust z-score, replicate 1: -0.591; robust z-score, replicate 2: -0.206; robust z-score, replicate 3: -0.201; Outcome: inactive

What is on record for ZNF358 (zinc finger protein 358)?
robust z-score, replicate 1: -1.1; robust z-score, replicate 2: -0.967; robust z-score, replicate 3: -1.32; Outcome: inactive

How did the screen score CCDC197 (coiled-coil domain containing 197)?
robust z-score, replicate 1: 1.44; robust z-score, replicate 2: 1.65; robust z-score, replicate 3: 1.48; Outcome: inactive

With GRIK4 (glutamate ionotropic receptor kainate type subunit 4), what does the deposit list?
robust z-score, replicate 1: 0.398; robust z-score, replicate 2: 0.644; robust z-score, replicate 3: 0.601; Outcome: inactive

With ZNF252P-AS1 (ZNF252P antisense RNA 1), what does the deposit list?
robust z-score, replicate 1: 0.0795; robust z-score, replicate 2: -0.122; robust z-score, replicate 3: -0.024; Outcome: inactive

What is on record for ZBTB48 (zinc finger and BTB domain containing 48)?
robust z-score, replicate 1: 0.329; robust z-score, replicate 2: 0.15; robust z-score, replicate 3: 0.31; Outcome: inactive

Which result is listed for LOC442037 (retired record)?
robust z-score, replicate 1: 0.774; robust z-score, replicate 2: 0.0967; robust z-score, replicate 3: -2; Outcome: inactive

For ZNF425 (zinc finger protein 425), how do the results read?
robust z-score, replicate 1: -0.994; robust z-score, replicate 2: -0.978; robust z-score, replicate 3: -0.599; Outcome: inactive

What is on record for ZNF875 (zinc finger protein 875)?
robust z-score, replicate 1: 0.509; robust z-score, replicate 2: -0.161; robust z-score, replicate 3: -0.42; Outcome: inactive

What is on record for BEX4 (brain expressed X-linked 4)?
robust z-score, replicate 1: 0.501; robust z-score, replicate 2: 0.359; robust z-score, replicate 3: 0.676; Outcome: inactive

With LOC440462 (retired record), how do the results read?
robust z-score, replicate 1: 0.57; robust z-score, replicate 2: 0.151; robust z-score, replicate 3: 0.0999; Outcome: inactive

How did the screen score MPRIP (myosin phosphatase Rho interacting protein)?
robust z-score, replicate 1: 1.57; robust z-score, replicate 2: 0.471; robust z-score, replicate 3: 1.77; Outcome: inactive

What did the screen give for FCHO2 (FCH and mu domain containing endocytic adaptor 2)?
robust z-score, replicate 1: -1.08; robust z-score, replicate 2: -0.098; robust z-score, replicate 3: -0.865; Outcome: inactive

With PRAMEF1 (PRAME family member 1), how do the results read?
robust z-score, replicate 1: -0.646; robust z-score, replicate 2: -0.562; robust z-score, replicate 3: -0.909; Outcome: inactive

With ARHGAP17 (Rho GTPase activating protein 17), how do the results read?
robust z-score, replicate 1: 2.73; robust z-score, replicate 2: 3.55; robust z-score, replicate 3: 3.11; Outcome: active

What did the screen give for EBF1 (EBF transcription factor 1)?
robust z-score, replicate 1: 0.539; robust z-score, replicate 2: -0.967; robust z-score, replicate 3: 0.486; Outcome: inactive

With DARS2 (aspartyl-tRNA synthetase 2, mitochondrial), how do the results read?
robust z-score, replicate 1: -0.0217; robust z-score, replicate 2: -0.137; robust z-score, replicate 3: 0.036; Outcome: inactive

With CYP2C8 (cytochrome P450 family 2 subfamily C member 8), what does the deposit list?
robust z-score, replicate 1: 0.226; robust z-score, replicate 2: 0.104; robust z-score, replicate 3: 0.188; Outcome: inactive

How did the screen score LOC440703 (retired record)?
robust z-score, replicate 1: 1.28; robust z-score, replicate 2: 0.833; robust z-score, replicate 3: 0.779; Outcome: inactive

What is on record for HMBS (hydroxymethylbilane synthase)?
robust z-score, replicate 1: 1.91; robust z-score, replicate 2: 1.28; robust z-score, replicate 3: 2.64; Outcome: inactive

For TSPAN9 (tetraspanin 9), how do the results read?
robust z-score, replicate 1: -0.387; robust z-score, replicate 2: -0.698; robust z-score, replicate 3: -0.932; Outcome: inactive

How did the screen score TRIM39 (tripartite motif containing 39)?
robust z-score, replicate 1: 0.276; robust z-score, replicate 2: 0.148; robust z-score, replicate 3: 0.734; Outcome: inactive

What did the screen give for BAIAP3 (BAI1 associated protein 3)?
robust z-score, replicate 1: 0.45; robust z-score, replicate 2: 2.96; robust z-score, replicate 3: 2.29; Outcome: active

For PYROXD2 (pyridine nucleotide-disulphide oxidoreductase domain 2), what does the deposit list?
robust z-score, replicate 1: 0.188; robust z-score, replicate 2: 0.598; robust z-score, replicate 3: -0.173; Outcome: inactive
